{"source": "patent US8022034B2", "about": "“Combination therapy for the treatment of diabetes and conditions related thereto and for the treatment of conditions ameliorated by increasing a blood GLP-1 level” (Arena Pharmaceuticals, Inc., priority 2005, dated 2011)", "tested_on": "elevated blood glucose level", "assay": "Oral glucose tolerance test (oGTT) in mice (Example 1)", "type": "in vivo", "details": "GPR119 agonist alone, 1 mkg oral gavage, 30 min before glucose bolus 3 gram/kg; overnight fasted mice", "experimental": "Oral glucose tolerance test (oGTT) in mice was carried out as described here. Overnight fasted mice (n=6 mice per treatment) were administered via oral gavage with vehicle (PET), a GPR119 agonist (AR231453) at 1 mkg (milligram compound per kilogram of body weight), a DPP-IV inhibitor (AR247810) at 0.1 mkg, or a combination of the GPR119 agonist (1 mkg) and the DPP-IV inhibitor (0.1 mkg). Thirty minutes later, a glucose bolus (3 gram/kg) was then delivered per orally. Plasma glucose levels were determined at the indicated time points over a two hour period using blood (˜5 μl) collected from tail nick and a glucose meter. Glycemic excursion curve was graphed based on data from 6 mice and given in mean values+/−SEM (FIG. 1A).", "note": "Some results were stated once for a whole list of compounds, not compound by compound. At least one compound was matched to its structure with a doubt left."}
{"smiles": "CC(C)c1noc(C2CCN(c3ncnc(Nc4ccc(S(C)(=O)=O)cc4F)c3[N+](=O)[O-])CC2)n1", "note": "[AR231453]", "values": [{"measurement": "AUC inhibition of glycemic excursion", "result": "15-20%"}]}
